Data on 19 compounds can be found in the supplement of paper PMC12889115.

This is one part of the list. These are raw signals, not scaled to a control.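 First-pass screen: polymyxin B was added at a level that permeabilizes the Salmonella outer membrane while sparing the inner membrane. DMSO wells, with and without polymyxin B, defined maximum growth. Because plates differed from one another, each plate's data were ranked separately and the compounds with the lowest OD600 were carried forward as hits.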

The experiment concerns Salmonella enterica serovar Typhimurium SL1344. The experiment in a line: bacterial growth OD600 after 18 h with compound and polymyxin B; higher = more bacterial growth (less inhibition). The conditions noted are these: 50 µM, Mueller-Hinton broth.

With `CN(C)C1CCN(C(=O)c2cc(Cl)ccc2OC2CCN(C3CCCC3)CC2)C1` (centres undefined), the “bacterial growth OD600” value (polymyxin B 1 µg/mL) was determined as 1.22.
With `COc1ccc(CN2CCN(Cc3ccc(OC)c(C)c3C)C(CCO)C2)cc1OC` (centres undefined), the “bacterial growth OD600” value (polymyxin B 1 µg/mL) came out at 0.957.
Still for that read-out and setting: to `CCCS(=O)(=O)N1CCCC(Cc2ccccc2C)(C(=O)OCC)C1` (centres undefined) belongs 0.787; to `CSCCC(=O)N(Cc1cccnc1)CC1CCN(Cc2ccccc2C)CC1`, 1.2.
As for `COc1ccc(CN2Cc3cc(Cl)ccc3OC(C)C2)c(OC)c1OC` (centres undefined), the “bacterial growth OD600” value (polymyxin B 0.75 µg/mL) was 0.017.
Take `O=C(CCC1CCN(C(=O)C2=CCCC2)CC1)Nc1ccc(F)c(Cl)c1`: where the note is “polymyxin B 1 µg/mL”, the “bacterial growth OD600” value was 0.839.
The same measure, in the same setting: to `O=S(=O)(NCc1cccnc1Oc1ccc(F)c(F)c1)N1CCOCC1` belongs 0.804; to `Cc1ccccc1Oc1ncccc1CNC(=O)CCN1CCCO1`, 1.
As for `CCN(Cc1ccc(OC)cc1)CC1CCCN(CCc2cccc(OC)c2)C1` (centres undefined), the “bacterial growth OD600” value (polymyxin B 1 µg/mL) came to 0.746.
For the compound `CO[C@H]1[C@H](NC(=O)c2ccncc2)c2ccccc2C12CCN(C(=O)c1cc3ccccc3n1C)CC2`, the “bacterial growth OD600” value (polymyxin B 0.75 µg/mL) amounted to 0.797.
In the case of `CC(C)CN(C)c1ccc(C(=O)N2CCC(CN3CCCC3=O)CC2)cn1`, the “bacterial growth OD600” value (polymyxin B 0.75 µg/mL) was 0.764.
The same measure, in the same setting: with `O=C(c1ccccc1C(F)(F)F)N1CCC2(CC1)CC2C(=O)N1CCN(c2ccccn2)CC1` (centres undefined) the figure was 0.818.
As for `Cc1nc2ccccc2n1Cc1cc(C(=O)N2CCc3sccc3C2)n[nH]1`, the “bacterial growth OD600” value (polymyxin B 1 µg/mL) came to 0.867.
Same read-out and setting: to `O=C(Nc1ccc(-c2ccn[nH]2)cc1)C1CCCN(Cc2cc(F)ccc2F)C1` (centres undefined) belongs 0.934.
The same measure, in the same setting: to `Cc1nccn1CCCNC(=O)c1ccc(OC2CCN(C(=O)C3CC3)CC2)cc1` belongs 1.04; to `CN(CC1CCN(CCc2ccc(F)cc2)CC1)C(=O)c1ccsc1`, 1.07; to `COc1ccc(C(=O)N(C)CC2CCCN(CCc3ccccc3OC)C2)cc1C` (centres undefined), 0.695.
For the compound `CN(CCc1ccccn1)C(=O)CCC1CCCN(C(=O)CC2=CCCCC2)C1` (centres undefined), the “bacterial growth OD600” value (polymyxin B 1 µg/mL) was 0.824.
With `COc1ccc(CN2CCN(Cc3cccc4ncccc34)CC2CCO)c(F)c1` (centres undefined), for the setting “polymyxin B 1 µg/mL”, the “bacterial growth OD600” value was 0.943.
